# Where “and” joins values, the source holds several entries; their conditions need not be identical. Equal values may be shown once. Hit rate of the full screen: of about 360,000 compounds, about 7,500 (2.1%) were called active. The inconclusive results got no clear call from the source; some entries with a clear call stand among them for comparison. The call rests on the fitted dose curve; in most records, active means well fitted inhibition curve with a large enough effect; inconclusive means small, poorly fitted or top-dose-only effect, or effect the other way; inactive means flat fitted curve, though single readings scatter. Potencies beside an inconclusive call are fits to weak or partial responses and may not hold up.
# Experiment: Nrf2 qHTS screen for inhibitors; further: nearly all actives have a fitted effect of over 60% in size
# Details: A549 ARE-Fluc reporter, luciferase luminescence, 18-24 h; activity change, negative = inhibition: at 46 µM (top of the series)
# Summary of the method: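 Nrf2 activity is the BugLite luminescence, read 15 min after reagent at room temperature, following CellTiter-Fluor cytotoxicity readout (30 min, 37C). Compound titrations were applied for 18-24 h to 5000 A549 ARE_Fluc cells/well in 5% FBS OPTI-MEM.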
# On the % scale 0 is the no-effect control and ±100 the full control effect; potency means the concentration at half of the fitted maximal effect.
Structure (SMILES),Potency,"activity change, negative = inhibition"
CCn1cc(C(=O)NC2CC(C)(C)Cc3c2cnn3-c2cccc(F)c2)cn1 (centres undefined),"inconclusive: 9.2 µM [falling, partial curve, poor fit]",–
CCc1ccc(NC(=O)c2cc(CN3CCOCC3)on2)cc1,"inconclusive: 23.1 µM [activator, single point]",–
Cc1ccc(SCC(=O)Nc2cc(S(=O)(=O)N3CCCCC3)ccc2C)cc1,"inconclusive: 29.1 µM [falling, single point]",–
CC(=O)C1=NN(c2ccccc2)C2(S1)S/C(=C\c1ccccc1)C(=O)N2c1ccccc1 (centres undefined),"inconclusive: 29.1 µM [falling, single point]",–
O=C(Nc1nc2ccccc2[nH]1)c1cccc(Cl)c1,"inconclusive: 5.8 µM [activator, full curve]",–
CCOc1cc(/C=C2/SC(=Nc3ccccc3)N(Cc3cccnc3)C2=O)ccc1OCC#N,"inconclusive: 29.1 µM [falling, single point]",–
CC1CC(C)CN(S(=O)(=O)N2CCCC(C(=O)NC(C)c3ccccc3)C2)C1 (centres undefined),"inconclusive: 13 µM [falling, partial curve, poor fit]",–
Cn1nnnc1Sc1ncnc2scc(-c3ccccc3C(F)(F)F)c12,"inconclusive: 29.1 µM [falling, single point] and inconclusive: 25.9 µM [falling, single point]",–
CNc1nc(SC)nc2ccccc12,–,inactive: -14.4%
CCOc1ccccc1NC(=O)CSc1nnc(-c2ccccn2)n1Cc1ccco1,"inconclusive: 0.0058 µM [falling, full curve, poor fit]",–
COC(=O)c1c(-c2ccccc2)csc1NC(=O)C1CC=CCC1C(=O)O (centres undefined),"inconclusive: 16.4 µM [activator, single point]",–
COc1ccc(S(=O)(=O)Nc2cc(C)ccn2)cc1,–,inactive: 20.3%
Cc1[nH]c(=O)[nH]c(=O)c1S(=O)(=O)NCC12CC3CC(CC(C3)C1)C2,"inconclusive: 14.6 µM [falling, partial curve]",–
O=C(OCCc1cc2ccccc2c(=O)o1)N1CCOCC1,"inconclusive: 29.1 µM [activator, single point]",–
CCc1noc(C)c1C(=O)Nc1nc(-c2ccccc2)cs1,"inconclusive: 4.61 µM [activator, full curve, poor fit]",–
Cc1ccc2nc(NCCc3ccc(Cl)cc3)c3nncn3c2c1,inactive,–
CCOC(=O)C1=C(CN(C)Cc2ccccc2)NC(=O)NC1c1ccc(OC(C)C)cc1 (centres undefined),active: 25.9 µM,–
O=C(COc1cccnc1[N+](=O)[O-])Nc1cccc2ccccc12,–,inactive: -11.2%
COc1cccc(OC)c1C(=O)NC(=S)Nc1ccc2c(c1)OCCO2,"inconclusive: 3.66 µM [activator, single point]",–
O=C(O)CCc1cc(F)c(S(=O)(=O)N2CCN(S(=O)(=O)c3ccc4c(c3)OCCO4)CC2)cc1F,–,inactive: -13.6%
COC(=O)Cn1cc(/C=C/c2cc[n+](C)cc2)c2ccccc21,–,inactive: -30.4%
Nc1nnc(SCc2nc3scc(-c4ccccc4)c3c(=O)[nH]2)s1,"inconclusive: 29.1 µM [falling, single point]",–

Structure (SMILES),Potency,"activity change, negative = inhibition"
CCn1c(=O)c(C(=O)NNC(=O)c2ccccc2Br)c(O)c2ccccc21,"inconclusive: 29.1 µM [falling, single point]",–
Cc1ccc(CC(=O)O/N=C(\N)c2ccccn2)cc1,"inconclusive: 2.59 µM [activator, full curve]",–
C[C@@H]1C[C@H]2[C@@H]3CCC4=CC(=O)C=C[C@]4(C)[C@@]3(F)[C@@H](O)C[C@]2(C)[C@H]1C(=O)CO,active: 0.0184 µM,–
CCN(CCNS(=O)(=O)c1ccc2[nH]c(=O)sc2c1)c1ccccc1,"inconclusive: 29.1 µM [falling, single point]",–
COc1ccccc1CNS(=O)(=O)c1ccc(-n2cnnn2)c(OC)c1,"inconclusive: 13 µM [falling, partial curve, poor fit]",–
O=C1CS/C(=N\N=C\c2ccccc2Cl)N1CC1CC1,–,inactive: 14.7%
COc1ccc(OCCn2c(=N)n(CCO)c3ccccc32)cc1,–,inactive: 8.99%
COc1ccc(-c2cc(C3C4C=CCCC4(C)C(=O)N3Cc3ccccc3)ccc2F)cc1OC (centres undefined),"inconclusive: 29.1 µM [falling, single point]",–
c1ccc(-c2nnc(N3CCOCC3)nc2-c2ccccc2)cc1,"inconclusive: 29.1 µM [falling, single point]",–
Cc1cc(C)n2ncc(C(=O)Nc3ccc4c(c3)CCC4)c2n1,"inconclusive: 7.31 µM [activator, partial curve]",–
COc1ccc(C[C@H]2CN3C(=NC[C@@H]3Cc3ccc(O)cc3)N2C[C@H](C)NC(=O)c2ccc(C)c(Br)c2)cc1,"inconclusive: 32.6 µM [falling, single point]",–
O=C(COC(=O)c1cccc([N+](=O)[O-])c1)c1ccc(OCc2ccccc2)cc1,"inconclusive: 18.4 µM [activator, single point]",–
C=CCOC(=O)C1=C(C)NC(=S)NC1/C=C/c1ccccc1 (centres undefined),"inconclusive: 9.2 µM [falling, single point]",–
Cc1oc2c(c1C(=O)NCc1cccnc1)C(=O)c1ccccc1C2=O,active: 5.17 µM,–
CCc1cc2c(Nc3ccc(O)cc3)nc(C)nc2s1,"inconclusive: 23.1 µM [falling, partial curve, poor fit]",–
c1cn2cc(CSC3CCCCC3)nc2s1,"inconclusive: 5.8 µM [activator, full curve]",–
CC1C=CC=CC=CC=CC=CC=CC=CC(OC2OC(C)C(O)C(N)C2O)CC2OC(O)(CC(O)CC(O)C(O)CCC(O)CC(O)CC(=O)OC(C)C(C)C1O)CC(O)C2C(=O)O (centres undefined),"inconclusive: 6.51 µM [activator, single point]",–
Cc1cc(C)c(C)c(S(=O)(=O)N2CCC(C(=O)NCC(c3ccccc3)N(C)C)CC2)c1C (centres undefined),"inconclusive: 18.4 µM [activator, partial curve, poor fit]",–
COc1ccc2oc(C(=O)OCC(=O)NCCc3ccc(S(N)(=O)=O)cc3)c(C)c2c1,"inconclusive: 5.17 µM [falling, partial curve, poor fit]",–
Cc1cc(C)n(CCC(=O)N=Nc2c(O)[nH]c3ccc(Br)cc23)n1,"inconclusive: 18.4 µM [falling, partial curve, poor fit]",–
O=C(N/N=C/c1ccc(Cl)cc1)C1CC12CCC2 (centres undefined),"inconclusive: 7.31 µM [activator, partial curve, poor fit]",–
CCCOc1ccc(CNC(=O)c2cc3oc4ccccc4c3n2C)cc1,"inconclusive: 13 µM [activator, partial curve, poor fit]",–

# Reformatted with bars between the fields: entries from further up
Structure (SMILES) | Potency | activity change, negative = inhibition
CCn1cc(C(=O)NC2CC(C)(C)Cc3c2cnn3-c2cccc(F)c2)cn1 (centres undefined) | inconclusive: 9.2 µM [falling, partial curve, poor fit] | –
COC(=O)Cn1cc(/C=C/c2cc[n+](C)cc2)c2ccccc21 | – | inactive: -30.4%
CCn1c(=O)c(C(=O)NNC(=O)c2ccccc2Br)c(O)c2ccccc21 | inconclusive: 29.1 µM [falling, single point] | –
COc1ccc(-c2cc(C3C4C=CCCC4(C)C(=O)N3Cc3ccccc3)ccc2F)cc1OC (centres undefined) | inconclusive: 29.1 µM [falling, single point] | –
Cc1oc2c(c1C(=O)NCc1cccnc1)C(=O)c1ccccc1C2=O | active: 5.17 µM | –

# Next compounds follow.

Structure (SMILES),Potency,"activity change, negative = inhibition"
Cc1cc(=O)oc2cc(NC(=O)Cc3ccccc3)ccc12,"inconclusive: 29.1 µM [activator, single point]",–
Cc1cc(-n2c(C)cc(C(=O)COc3ccc([N+](=O)[O-])cc3)c2C)no1,"inconclusive: 16.4 µM [falling, single point]",–
CCN(CC)CCOCCOC(=O)C1(c2ccccc2)CCCC1,"inconclusive: 29.1 µM [falling, single point]",–
CCNc1oc(-c2cccc3ccccc23)nc1C#N,–,inactive: -17.8%
COc1ccc(NS(=O)(=O)c2csc(C(=O)N3CCCC3)c2)cc1,"inconclusive: 13 µM [falling, partial curve, poor fit]",–
COc1ccccc1NC(=O)c1c(C)nc2ccccc2c1C(=O)O,–,inactive: -7.3%
COc1ccc(/C=C/C(=O)NC(=S)NNC(=O)[C@H]2C[C@@H]2c2ccccc2)cc1OC,"inconclusive: 8.2 µM [activator, partial curve, poor fit]",–
O=C(c1ccc(F)cc1)C1CCN(C(=S)Nc2ccc(F)cc2)CC1,"inconclusive: 29.1 µM [falling, single point]",–
CCCn1c2ccc(C)cc2c2nnc(SCCN3CCCCC3)nc21,"inconclusive: 16.4 µM [activator, partial curve, poor fit]",–
Cc1ccc(Cn2c(NS(=O)(=O)c3ccccc3)nc3ccccc32)cc1,"inconclusive: 29.1 µM [falling, single point]",–
CCN(CC)C(=N)/C(C#N)=N/Nc1ccc(C)cc1,"inconclusive: 7.31 µM [activator, partial curve]",–
COc1ccc(S(=O)(=O)N(C)CC(=O)Nc2ccc(C)cc2)cc1OC,–,inactive: -3.74%
Cc1ccc(S(=O)(=O)Nc2nc3n(n2)C(c2ccc(Cl)cc2)C=C(c2ccccc2)N3)cc1 (centres undefined),"inconclusive: 29.1 µM [falling, single point]",–
O=C(NCc1ccc2c(c1)OCO2)c1ccc(-c2ccc(Cl)cc2)o1,"inconclusive: 23.1 µM [falling, single point]",–
CC(=O)Nc1ccc2cc3ccc(NC(C)=O)cc3nc2c1,–,inactive: -8.41%
CN(C(=O)c1cccc(NC(=O)Cc2ccc(NC(=O)C3CCCN(S(=O)(=O)c4cccc([N+](=O)[O-])c4)C3)cc2)c1)C1CCC1 (centres undefined),"inconclusive: 23.1 µM [falling, single point]",–
Cc1cc(C)cc(NC(=O)CCn2c(=S)[nH]c3ccccc3c2=O)c1,"inconclusive: 20.6 µM [falling, single point]",–
Cc1nc2c(ccc3nc(NC(=O)c4ccc5c(c4)OCCO5)sc32)s1,"inconclusive: 2.06 µM [activator, full curve] and inconclusive: 5.17 µM [activator, partial curve]",–
CC1=C(C(=O)OC2CCCCCC2)C(c2c(Cl)cccc2Cl)CC(=O)N1 (centres undefined),active: 20.6 µM,–
CC(NC(=O)C12CC3CC(CC(O)(C3)C1)C2)c1ccccc1 (centres undefined),"inconclusive: 2.31 µM [falling, partial curve, poor fit]",–

# — PubChem BioAssay AID504444 (National Center for Advancing Translational Sciences (NCATS), 2011)
